Data taken from article PMC12346409.
Construct, isoform or probe ends are uncertain for at least one entry. For some assays here: The comparison behind a weaker result is the experiment's own reference, which may not be listed here. For some assays here: At least one verdict was read from the data and is not stated in words by the source. For some assays here: Tags and fusion partners may be left off the protein sequences shown.

The chains behind the UniProt entries cited, without tags or fusion partners. Where a name states a change or a piece, a line headed by the entry shows the natural chain unless it says otherwise.
UniProt Q9UGN5: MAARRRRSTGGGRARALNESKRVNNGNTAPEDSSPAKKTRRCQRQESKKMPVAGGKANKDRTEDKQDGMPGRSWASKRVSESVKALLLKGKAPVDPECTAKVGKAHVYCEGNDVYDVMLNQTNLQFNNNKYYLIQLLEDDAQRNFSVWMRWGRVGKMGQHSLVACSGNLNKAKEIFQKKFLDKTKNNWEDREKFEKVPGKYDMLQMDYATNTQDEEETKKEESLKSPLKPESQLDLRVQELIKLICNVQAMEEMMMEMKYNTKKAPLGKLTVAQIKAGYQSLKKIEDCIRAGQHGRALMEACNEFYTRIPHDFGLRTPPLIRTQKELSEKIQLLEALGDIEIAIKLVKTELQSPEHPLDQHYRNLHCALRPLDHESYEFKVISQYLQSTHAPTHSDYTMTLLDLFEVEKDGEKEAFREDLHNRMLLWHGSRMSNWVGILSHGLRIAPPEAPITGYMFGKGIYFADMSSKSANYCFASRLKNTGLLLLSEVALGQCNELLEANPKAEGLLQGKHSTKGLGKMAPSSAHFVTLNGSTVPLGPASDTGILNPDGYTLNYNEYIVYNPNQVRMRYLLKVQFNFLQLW
UniProt P09874, whole entry: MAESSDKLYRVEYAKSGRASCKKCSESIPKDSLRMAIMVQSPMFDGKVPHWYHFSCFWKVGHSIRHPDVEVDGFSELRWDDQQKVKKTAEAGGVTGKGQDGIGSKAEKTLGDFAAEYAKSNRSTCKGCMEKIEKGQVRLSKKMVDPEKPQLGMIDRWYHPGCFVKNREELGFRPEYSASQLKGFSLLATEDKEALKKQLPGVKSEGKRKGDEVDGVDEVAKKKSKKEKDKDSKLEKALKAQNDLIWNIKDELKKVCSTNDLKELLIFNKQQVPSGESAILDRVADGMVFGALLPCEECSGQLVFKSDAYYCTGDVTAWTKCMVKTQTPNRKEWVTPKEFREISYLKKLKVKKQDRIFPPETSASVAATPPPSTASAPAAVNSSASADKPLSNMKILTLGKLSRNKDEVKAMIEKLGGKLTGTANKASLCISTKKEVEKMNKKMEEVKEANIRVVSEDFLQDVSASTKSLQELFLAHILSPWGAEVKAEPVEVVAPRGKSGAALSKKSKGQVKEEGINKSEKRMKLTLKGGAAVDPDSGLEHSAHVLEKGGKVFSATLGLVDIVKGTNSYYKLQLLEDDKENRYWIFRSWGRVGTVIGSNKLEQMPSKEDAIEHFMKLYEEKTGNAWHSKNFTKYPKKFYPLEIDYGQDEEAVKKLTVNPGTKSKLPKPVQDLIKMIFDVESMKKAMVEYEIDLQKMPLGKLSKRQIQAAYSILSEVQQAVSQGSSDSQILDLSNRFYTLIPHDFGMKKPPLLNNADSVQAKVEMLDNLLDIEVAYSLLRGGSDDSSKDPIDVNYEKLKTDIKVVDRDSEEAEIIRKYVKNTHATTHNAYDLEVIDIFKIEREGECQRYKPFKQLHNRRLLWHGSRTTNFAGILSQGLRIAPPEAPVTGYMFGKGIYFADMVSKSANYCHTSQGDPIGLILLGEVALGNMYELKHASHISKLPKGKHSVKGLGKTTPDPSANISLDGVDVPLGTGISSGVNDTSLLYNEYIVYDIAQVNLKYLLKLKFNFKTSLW

Legend:
[1] = biological target: PARP2 (human) (UniProt Q9UGN5); experiment: EMSA; settings: EMSA: 50 mM Tris-HCl pH 8.0, 20 mM NaCl, 0.25 mM EDTA, 5% glycerol, 0.025% NP-40, 37 °C 20 min, 8% PAAG, 0.5x TBE, 10 °C, recombinant protein, label: 5'-32P on O1-Pho strand
[2] = biological target: PARP1 (human) (UniProt P09874); experiment: EMSA; settings: 10 nM PARP1, 10 nM DNA, range over the three LS-DNAs, EMSA: 50 mM Tris-HCl pH 8.0, 20 mM NaCl, 0.25 mM EDTA, 5% glycerol, 0.025% NP-40, 37 °C 20 min, 8% PAAG, 0.5x TBE, 10 °C, recombinant protein, label: 5'-32P on O1-Pho strand
[3] = biological target: T1, PARP3 (UniProt Q9Y6F1); experiment: EMSA; settings: 10 nM DNA, EMSA: 50 mM Tris-HCl pH 8.0, 20 mM NaCl, 0.25 mM EDTA, 5% glycerol, 0.025% NP-40, 37 °C 20 min, 8% PAAG, 0.5x TBE, 10 °C, recombinant protein, label: 5'-32P on O1-Pho strand
T1 sequence (looked up, limits assumed): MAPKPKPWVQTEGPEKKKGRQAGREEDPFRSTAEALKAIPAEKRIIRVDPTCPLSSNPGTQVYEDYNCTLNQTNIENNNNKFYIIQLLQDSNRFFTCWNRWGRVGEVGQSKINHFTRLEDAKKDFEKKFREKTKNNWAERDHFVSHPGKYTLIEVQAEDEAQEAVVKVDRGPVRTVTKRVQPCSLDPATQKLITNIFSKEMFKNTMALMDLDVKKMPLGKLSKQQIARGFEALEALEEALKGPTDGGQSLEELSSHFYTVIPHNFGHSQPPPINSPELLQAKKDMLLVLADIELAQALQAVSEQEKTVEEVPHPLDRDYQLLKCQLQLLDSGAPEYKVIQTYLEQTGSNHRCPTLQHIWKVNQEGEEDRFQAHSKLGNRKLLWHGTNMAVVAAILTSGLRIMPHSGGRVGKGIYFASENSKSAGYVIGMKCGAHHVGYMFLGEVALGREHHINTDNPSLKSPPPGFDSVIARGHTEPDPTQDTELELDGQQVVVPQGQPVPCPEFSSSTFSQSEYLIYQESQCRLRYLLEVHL

[4] = biological target: PARP2 (human) (UniProt Q9UGN5); experiment: photo-cross-linking; settings: with NAD+ (autoPARylated PARP2); 3'-terminal FAP-dCMP (photoactivatable C) on strand 2; recombinant protein; label: 5'-32P
[5] = biological target: PARP1 (human) (UniProt P09874); experiment: photo-cross-linking; settings: recombinant protein
[6] = system: Ku antigen (Ku70/Ku80); experiment: photo-cross-linking; settings: 100 nM DNA, 100 nM protein, Ku70 and Ku80 labelled; 3'-terminal FAP-dCMP on strand 1; 5'-p-diethylene glycol on strand 2

TCCTGACATACTTGATACTTAGACATTCTT / AAGAATGTCTAAGTATCAAGTATGT [DNA-TZD (EMSA, O-TZD/O1-Pho)]
binding result ([1]; 10 nM DNA, maximal LS-DNA binding 15% (lane 2) at 10 nM PARP2, triazinyl phosphoramidate with two dodecyl residues between T29 and T30 of strand 1): binds
binding result ([2]; triazinyl phosphoramidate with two dodecyl residues between T29 and T30 of strand 1): binds
binding result ([3]; maximal LS-DNA binding 25% (lane 2) at 10 nM PARP3, triazinyl phosphoramidate with two dodecyl residues between T29 and T30 of strand 1): binds

TCCTGACATACTTGATACTTAGACATTCTT / AAGAATGTCTAAGTATCAAGTATGTC [Pho-DNA-R]
binding result [4]: binds more weakly
binding result ([5]; with NAD+ (autoPARylated PARP1), 3'-terminal FAP-dCMP (photoactivatable C) on strand 2, label: 5'-32P): binds more weakly

TCCTGACATACTTGATACTTAGACATTCTT / AAGAATGTCTAAGTATCAAGTATGT [DNA-Chol (EMSA, O-Chol/O1-Pho)]
binding result ([1]; 10 nM DNA, at most 15% at 10 nM PARP2, 3'-cholesterol via linker on strand 1): binds
binding result ([2]; 3'-cholesterol via linker on strand 1): binds
binding result ([3]; at most 25% at 10 nM PARP3, 3'-cholesterol via linker on strand 1): binds

GGCGACTAAGCCGGGC / AACGCCAGGGCCTCCC / GGGAGGCCCTGGCGTTGCCCGGCTTAGTCGCC [Pho-pDEG]
binding result ([5]; 100 nM DNA, 100 nM protein, 3'-terminal FAP-dCMP on strand 1, 5'-p-diethylene glycol on strand 2): binds
binding result [6]: binds

TCCTGACATACTTGATACTTAGACATTCTT / AAGAATGTCTAAGTATCAAGTATGT [DNA-R (EMSA, O-R/O1-Pho)]
binding result ([1]; no complex at 10 nM PARP2, 10 nM DNA, complexes implied at protein excess): binds more weakly

TCCTGACATACTTGATACTTAGACATTCTT / AAGAATGTCTAAGTATCAAGTATGT [DNA-PG-TZD (EMSA, O-PG-TZD/O1-Pho)]
binding result ([1]; 10 nM DNA, at most 15% at 10 nM PARP2, phosphorylguanidine at internucleotide phosphates 1 and 2, TZD between T29 and T30 of strand 1): binds
binding result ([2]; phosphorylguanidine at internucleotide phosphates 1 and 2, TZD between T29 and T30 of strand 1): binds
binding result ([3]; at most 25% at 10 nM PARP3, phosphorylguanidine at internucleotide phosphates 1 and 2, TZD between T29 and T30 of strand 1): binds
